Results are given in words; binding and its absence hold for the method and conditions named. Binding seen in cells or lysates may run through a third protein. Some binding calls cover weakened binding; strength is not graded here. For part of these data: Where a sequence is shown, tags or fusion partners need not be part of it. Each block holds one molecule with its values, some of them ahead of it.
Experiments:
[1] = target: T1, Src homology 2-containing inositol 5-phosphatase 2 (SHIP2), endogenous (human (endogenous in HGC-27 and MKN-28)) (UniProt O15357); experiment: co-IP; HGC-27 cells; blots for NEDD4, SIAH2, WWP2, MUL1 and Cul4A
T1 sequence: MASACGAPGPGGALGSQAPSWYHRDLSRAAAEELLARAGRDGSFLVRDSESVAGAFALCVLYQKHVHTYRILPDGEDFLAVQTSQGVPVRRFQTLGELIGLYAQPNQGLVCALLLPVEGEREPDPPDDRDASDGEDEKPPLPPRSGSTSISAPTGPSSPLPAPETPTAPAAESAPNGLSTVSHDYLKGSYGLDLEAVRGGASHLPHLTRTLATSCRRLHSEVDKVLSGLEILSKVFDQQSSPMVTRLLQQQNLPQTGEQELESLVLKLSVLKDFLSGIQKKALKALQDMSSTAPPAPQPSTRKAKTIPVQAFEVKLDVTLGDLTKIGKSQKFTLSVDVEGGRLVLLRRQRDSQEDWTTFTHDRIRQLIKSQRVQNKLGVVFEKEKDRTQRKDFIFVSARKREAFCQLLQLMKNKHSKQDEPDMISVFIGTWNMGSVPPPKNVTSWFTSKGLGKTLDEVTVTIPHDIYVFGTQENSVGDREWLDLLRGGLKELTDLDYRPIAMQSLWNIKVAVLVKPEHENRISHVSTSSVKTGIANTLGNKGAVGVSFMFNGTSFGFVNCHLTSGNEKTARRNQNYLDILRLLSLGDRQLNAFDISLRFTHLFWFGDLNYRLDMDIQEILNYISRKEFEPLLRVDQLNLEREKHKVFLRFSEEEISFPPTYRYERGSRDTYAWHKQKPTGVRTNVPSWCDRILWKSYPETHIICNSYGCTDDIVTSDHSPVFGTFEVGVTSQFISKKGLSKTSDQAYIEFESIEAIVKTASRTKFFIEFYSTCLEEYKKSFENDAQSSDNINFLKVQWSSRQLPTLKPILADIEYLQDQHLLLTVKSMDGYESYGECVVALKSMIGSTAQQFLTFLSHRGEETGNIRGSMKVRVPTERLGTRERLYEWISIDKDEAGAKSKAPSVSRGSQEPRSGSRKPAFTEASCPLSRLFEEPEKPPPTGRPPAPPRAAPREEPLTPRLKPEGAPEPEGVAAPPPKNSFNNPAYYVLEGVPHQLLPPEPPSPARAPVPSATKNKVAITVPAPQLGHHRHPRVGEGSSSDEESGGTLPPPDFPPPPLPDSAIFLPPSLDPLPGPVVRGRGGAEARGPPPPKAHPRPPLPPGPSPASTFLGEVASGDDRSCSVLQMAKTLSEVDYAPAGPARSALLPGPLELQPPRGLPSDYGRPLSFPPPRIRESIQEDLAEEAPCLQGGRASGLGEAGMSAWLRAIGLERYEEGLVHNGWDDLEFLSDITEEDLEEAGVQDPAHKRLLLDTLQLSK

Chains of the proteins cited; added tags and fusions are not shown.
UniProt Q99623: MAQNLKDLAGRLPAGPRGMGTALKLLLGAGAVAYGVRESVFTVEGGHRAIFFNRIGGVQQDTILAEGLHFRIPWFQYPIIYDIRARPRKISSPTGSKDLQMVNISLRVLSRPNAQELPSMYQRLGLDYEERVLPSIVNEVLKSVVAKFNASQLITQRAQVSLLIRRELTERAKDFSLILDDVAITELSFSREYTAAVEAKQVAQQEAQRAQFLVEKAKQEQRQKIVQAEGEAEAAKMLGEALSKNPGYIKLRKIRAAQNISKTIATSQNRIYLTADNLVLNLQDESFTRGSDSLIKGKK
UniProt P46934: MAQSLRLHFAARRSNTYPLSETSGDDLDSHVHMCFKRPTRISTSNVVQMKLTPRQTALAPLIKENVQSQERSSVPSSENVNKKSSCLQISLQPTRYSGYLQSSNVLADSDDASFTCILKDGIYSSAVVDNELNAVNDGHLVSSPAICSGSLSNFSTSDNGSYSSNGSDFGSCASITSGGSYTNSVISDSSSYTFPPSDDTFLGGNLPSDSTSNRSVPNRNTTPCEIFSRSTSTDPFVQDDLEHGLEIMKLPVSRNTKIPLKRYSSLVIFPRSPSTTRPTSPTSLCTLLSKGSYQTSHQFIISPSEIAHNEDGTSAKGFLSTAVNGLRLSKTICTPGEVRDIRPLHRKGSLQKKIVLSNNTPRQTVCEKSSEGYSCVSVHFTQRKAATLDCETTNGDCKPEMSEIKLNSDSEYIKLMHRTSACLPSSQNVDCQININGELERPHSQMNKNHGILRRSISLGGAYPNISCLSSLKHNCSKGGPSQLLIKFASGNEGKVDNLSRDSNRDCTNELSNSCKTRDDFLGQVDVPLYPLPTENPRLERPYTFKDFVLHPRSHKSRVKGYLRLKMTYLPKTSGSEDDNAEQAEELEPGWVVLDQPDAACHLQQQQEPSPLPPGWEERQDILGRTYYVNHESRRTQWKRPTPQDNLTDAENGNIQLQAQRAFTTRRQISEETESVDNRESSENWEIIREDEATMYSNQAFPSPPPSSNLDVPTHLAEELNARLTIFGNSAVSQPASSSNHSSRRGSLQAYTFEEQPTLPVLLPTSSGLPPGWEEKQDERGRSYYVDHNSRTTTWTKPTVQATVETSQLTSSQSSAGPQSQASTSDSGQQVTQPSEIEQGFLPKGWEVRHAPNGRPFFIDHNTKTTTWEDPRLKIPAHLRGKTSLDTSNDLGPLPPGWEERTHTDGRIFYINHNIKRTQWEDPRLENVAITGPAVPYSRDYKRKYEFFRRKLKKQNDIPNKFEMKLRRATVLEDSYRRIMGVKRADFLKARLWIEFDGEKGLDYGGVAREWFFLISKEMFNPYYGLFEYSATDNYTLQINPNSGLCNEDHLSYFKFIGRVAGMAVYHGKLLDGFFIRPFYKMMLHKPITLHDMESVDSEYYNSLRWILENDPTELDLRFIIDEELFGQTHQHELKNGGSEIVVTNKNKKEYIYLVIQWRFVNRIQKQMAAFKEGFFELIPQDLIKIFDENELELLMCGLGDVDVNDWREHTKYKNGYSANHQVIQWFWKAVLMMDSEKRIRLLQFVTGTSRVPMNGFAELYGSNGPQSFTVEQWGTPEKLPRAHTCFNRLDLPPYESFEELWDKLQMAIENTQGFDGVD
UniProt Q13619: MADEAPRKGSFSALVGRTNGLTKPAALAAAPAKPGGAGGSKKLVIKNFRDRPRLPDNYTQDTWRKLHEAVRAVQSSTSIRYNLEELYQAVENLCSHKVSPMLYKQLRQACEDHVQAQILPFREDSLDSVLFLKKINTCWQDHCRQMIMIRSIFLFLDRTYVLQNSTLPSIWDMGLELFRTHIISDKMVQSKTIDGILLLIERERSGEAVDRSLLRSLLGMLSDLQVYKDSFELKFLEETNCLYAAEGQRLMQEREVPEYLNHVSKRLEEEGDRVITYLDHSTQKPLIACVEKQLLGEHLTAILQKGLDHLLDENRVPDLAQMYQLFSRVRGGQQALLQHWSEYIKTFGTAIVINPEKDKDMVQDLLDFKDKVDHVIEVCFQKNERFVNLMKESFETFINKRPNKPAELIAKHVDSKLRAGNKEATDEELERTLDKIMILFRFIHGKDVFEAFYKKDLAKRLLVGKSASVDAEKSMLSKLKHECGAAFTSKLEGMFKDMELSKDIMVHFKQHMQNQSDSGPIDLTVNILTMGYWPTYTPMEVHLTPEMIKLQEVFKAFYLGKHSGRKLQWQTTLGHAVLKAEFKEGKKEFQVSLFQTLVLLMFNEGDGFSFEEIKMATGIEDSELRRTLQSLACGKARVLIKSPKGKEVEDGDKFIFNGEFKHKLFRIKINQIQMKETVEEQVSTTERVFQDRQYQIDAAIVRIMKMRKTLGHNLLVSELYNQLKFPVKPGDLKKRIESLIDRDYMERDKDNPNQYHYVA
UniProt Q969V5: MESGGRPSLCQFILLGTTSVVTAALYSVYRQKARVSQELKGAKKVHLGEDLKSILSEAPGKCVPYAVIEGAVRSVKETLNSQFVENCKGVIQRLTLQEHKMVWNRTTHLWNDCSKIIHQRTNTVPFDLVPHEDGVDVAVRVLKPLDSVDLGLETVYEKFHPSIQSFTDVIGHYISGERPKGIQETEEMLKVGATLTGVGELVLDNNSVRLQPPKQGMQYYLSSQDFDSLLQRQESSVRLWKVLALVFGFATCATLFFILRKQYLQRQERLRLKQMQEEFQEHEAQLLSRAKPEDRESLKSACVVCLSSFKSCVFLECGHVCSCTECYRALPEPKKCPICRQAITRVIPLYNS

[2] = target: Prohibitin 2 (PHB2), endogenous (human (endogenous in HGC-27 and MKN-28)) (UniProt Q99623); experiment: as above
[3] = target: Prohibitin 2 (PHB2), endogenous (human (endogenous in HGC-27 and MKN-28)) (UniProt Q99623); experiment: co-IP; endogenous proteins, HGC-27 and MKN-28 cell extracts, antibody and protein A/G agarose beads, 4 °C
[4] = target: Flag-PHB2 (full-length PHB2, PHB2-FL) (UniProt Q99623); experiment: co-IP; deletion mapping of SHIP2 truncates and PHB2 mutants in HEK293T cells
[5] = target: GST-PHB2 (UniProt Q99623); experiment: pull-down; tGFP-SHIP2 from HGC-27 cells (also with stable knockdown of PHB1) incubated with purified GST, GST-PHB1 or GST-PHB2 at 4 °C for 4 h, then GST beads 4 h at 4 °C; Western blot; only the target purified
[6] = target: Flag-PHB2 (full-length PHB2, PHB2-FL) (UniProt Q99623); experiment: co-IP; exogenous Flag-PHB2 and tGFP-SHIP2 in AGS cells

Molecule: NEDD4, endogenous (from UniProt P46934 1-1319) (enzyme)
binding [2]: binds | binding [1]: binds

B1: SIAH2 (enzyme, UniProt O43255 1-324)
chain: MSRPSSTGPSANKPCSKQPPPQPQHTPSPAAPPAAATISAAGPGSSAVPAAAAVISGPGGGGGAGPVSPQHHELTSLFECPVCFDYVLPPILQCQAGHLVCNQCRQKLSCCPTCRGALTPSIRNLAMEKVASAVLFPCKYATTGCSLTLHHTEKPEHEDICEYRPYSCPCPGASCKWQGSLEAVMSHLMHAHKSITTLQGEDIVFLATDINLPGAVDWVMMQSCFGHHFMLVLEKQEKYEGHQQFFAIVLLIGTRKQAENFAYRLELNGNRRRLTWEATPRSIHDGVAAAIMNSDCLVFDTAIAHLFADNGNLGINVTISTCCP
binding [1]: no binding

B2: Src homology 2-containing inositol 5-phosphatase 2 (SHIP2), endogenous (protein, UniProt O15357 1-1258)
chain: T1 sequence
binding [3]: binds

B3: tGFP-SHIP2 (full-length SHIP2, SHIP2-FL) (protein, UniProt O15357 1-1258)
chain: T1 sequence
binding [4]: binds | binding [5]: binds | binding [6]: binds

More lines, now with the values ahead:

binding [1]: no binding
Molecule: Cul4A (from UniProt Q13619 1-759)

binding [1]: no binding
Molecule: MUL1 (from UniProt Q969V5 1-352) (enzyme)

From article PMC10782615
